From paper doi:10.1101/2021.09.29.462397
No constants are given. Whether binding was seen depends on the method and setting. Binding seen in cells or lysates may run through a third protein. Some results given as binding are weak or reduced against the parent protein; the word gives no strength. For some of these results: Sequences can lack the tags named with a protein. Values belong to the binder of their own block, whether it stands above or below them.

Amino acid sequences for entries named in this document (tags omitted). Residues count along the entry.
UniProt Q13485: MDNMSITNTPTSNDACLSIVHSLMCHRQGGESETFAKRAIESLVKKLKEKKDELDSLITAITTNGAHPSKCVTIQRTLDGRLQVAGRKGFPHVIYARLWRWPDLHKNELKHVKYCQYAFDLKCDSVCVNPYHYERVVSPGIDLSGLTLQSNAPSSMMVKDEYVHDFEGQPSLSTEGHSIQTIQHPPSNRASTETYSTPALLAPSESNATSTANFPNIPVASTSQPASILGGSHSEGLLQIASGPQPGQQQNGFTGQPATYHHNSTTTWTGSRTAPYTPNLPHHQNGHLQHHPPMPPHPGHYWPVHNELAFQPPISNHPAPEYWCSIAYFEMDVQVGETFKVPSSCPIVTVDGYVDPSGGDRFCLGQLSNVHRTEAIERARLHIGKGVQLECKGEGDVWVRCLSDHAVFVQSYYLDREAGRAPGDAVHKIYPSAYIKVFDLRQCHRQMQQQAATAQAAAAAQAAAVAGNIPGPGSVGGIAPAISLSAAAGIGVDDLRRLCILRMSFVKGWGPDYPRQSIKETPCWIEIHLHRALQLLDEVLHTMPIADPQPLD
UniProt O15105: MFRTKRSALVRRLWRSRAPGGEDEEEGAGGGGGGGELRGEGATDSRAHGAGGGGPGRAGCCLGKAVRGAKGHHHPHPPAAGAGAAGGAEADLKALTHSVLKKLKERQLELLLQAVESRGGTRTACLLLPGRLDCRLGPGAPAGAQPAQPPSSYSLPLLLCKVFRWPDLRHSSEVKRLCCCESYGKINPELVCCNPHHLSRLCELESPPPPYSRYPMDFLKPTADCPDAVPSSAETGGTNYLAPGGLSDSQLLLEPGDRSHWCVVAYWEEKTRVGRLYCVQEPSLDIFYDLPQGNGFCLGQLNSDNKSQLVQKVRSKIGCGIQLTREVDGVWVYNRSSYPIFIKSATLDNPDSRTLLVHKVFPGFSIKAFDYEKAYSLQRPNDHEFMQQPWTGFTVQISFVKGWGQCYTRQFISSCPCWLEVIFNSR
UniProt Q9GZV5: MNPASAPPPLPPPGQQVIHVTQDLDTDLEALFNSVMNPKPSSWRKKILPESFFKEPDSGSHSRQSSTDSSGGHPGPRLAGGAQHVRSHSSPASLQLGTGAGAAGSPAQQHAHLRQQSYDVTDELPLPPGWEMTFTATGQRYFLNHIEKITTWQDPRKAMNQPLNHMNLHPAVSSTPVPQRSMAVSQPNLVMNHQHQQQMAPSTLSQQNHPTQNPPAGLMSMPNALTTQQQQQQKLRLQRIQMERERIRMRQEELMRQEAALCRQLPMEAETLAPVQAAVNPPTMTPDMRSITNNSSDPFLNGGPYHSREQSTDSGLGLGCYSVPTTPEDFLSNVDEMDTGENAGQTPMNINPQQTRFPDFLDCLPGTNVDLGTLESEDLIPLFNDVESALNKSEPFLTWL
UniProt P37023, residues 22-503: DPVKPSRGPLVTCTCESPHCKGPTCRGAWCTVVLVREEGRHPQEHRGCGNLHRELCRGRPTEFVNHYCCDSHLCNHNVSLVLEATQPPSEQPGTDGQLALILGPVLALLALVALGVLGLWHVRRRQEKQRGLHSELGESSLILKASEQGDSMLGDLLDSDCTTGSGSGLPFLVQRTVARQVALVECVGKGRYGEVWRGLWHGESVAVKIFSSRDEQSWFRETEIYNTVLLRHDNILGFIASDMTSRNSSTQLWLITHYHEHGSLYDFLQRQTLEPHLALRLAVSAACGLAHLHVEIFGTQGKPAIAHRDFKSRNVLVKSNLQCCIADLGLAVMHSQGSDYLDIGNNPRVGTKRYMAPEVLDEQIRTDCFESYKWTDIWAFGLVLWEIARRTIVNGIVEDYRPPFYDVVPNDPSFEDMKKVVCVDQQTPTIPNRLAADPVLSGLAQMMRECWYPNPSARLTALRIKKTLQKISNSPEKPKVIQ

Assays:
[1] = biological target: SMAD4, endogenous (human (endogenous in HUAEC)) (UniProt Q13485); experiment: proximity ligation
[2] = biological target: SMAD7, endogenous (human (endogenous in HUAEC)) (UniProt O15105); experiment: co-IP
[3] = biological target: phosphorylated (p)TAZ, endogenous (human (endogenous in HUAEC)) (UniProt Q9GZV5); experiment: co-IP
[4] = biological target: T1, endoglin, endogenous (human (endogenous in HUAEC)) (UniProt P17813); experiment: co-IP
T1 sequence: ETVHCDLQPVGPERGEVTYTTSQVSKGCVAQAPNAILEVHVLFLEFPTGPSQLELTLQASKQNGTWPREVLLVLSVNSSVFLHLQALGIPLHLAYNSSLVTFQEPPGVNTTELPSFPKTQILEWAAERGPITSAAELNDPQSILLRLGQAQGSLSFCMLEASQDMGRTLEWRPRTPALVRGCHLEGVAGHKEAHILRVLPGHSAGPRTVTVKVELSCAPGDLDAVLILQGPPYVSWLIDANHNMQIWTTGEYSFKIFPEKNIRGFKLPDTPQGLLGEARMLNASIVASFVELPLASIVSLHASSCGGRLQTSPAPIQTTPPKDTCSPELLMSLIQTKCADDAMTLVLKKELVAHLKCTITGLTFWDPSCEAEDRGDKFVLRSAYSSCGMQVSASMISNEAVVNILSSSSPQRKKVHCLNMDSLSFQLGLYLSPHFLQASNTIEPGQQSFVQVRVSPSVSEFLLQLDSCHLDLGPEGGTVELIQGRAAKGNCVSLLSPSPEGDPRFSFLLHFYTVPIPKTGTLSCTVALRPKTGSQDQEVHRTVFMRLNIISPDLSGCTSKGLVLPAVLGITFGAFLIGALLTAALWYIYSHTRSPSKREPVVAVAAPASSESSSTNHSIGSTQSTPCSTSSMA

[5] = biological target: activin receptor-like kinase-1 (ALK1), endogenous (human (endogenous in HUAEC)) (UniProt P37023); experiment: co-IP
[6] = biological target: SMAD4, endogenous (human (endogenous in HUAEC)) (UniProt Q13485); experiment: co-IP
FLAG-SMAD4 = FLAG-SMAD4 (UniProt Q13485); experiment: co-IP

binding [1]: binds
binding [2]: no binding
binding [3]: binds
binding [4]: no binding
binding [5]: no binding
binding [6]: binds
B1: protein tyrosine phosphatase non-receptor, type 14 (PTPN14), endogenous (protein, UniProt Q15678 1-1187)
chain: MPFGLKLRRTRRYNVLSKNCFVTRIRLLDSNVIECTLSVESTGQECLEAVAQRLELRETHYFGLWFLSKSQQARWVELEKPLKKHLDKFANEPLLFFGVMFYVPNVSWLQQEATRYQYYLQVKKDVLEGRLRCTLDQVIRLAGLAVQADFGDYNQFDSQDFLREYVLFPMDLALEEAVLEELTQKVAQEHKAHSGILPAEAELMYINEVERLDGFGQEIFPVKDNHGNCVHLGIFFMGIFVRNRIGRQAVIYRWNDMGNITHNKSTILVELINKEETALFHTDDIENAKYISRLFATRHKFYKQNKICTEQSNSPPPIRRQPTWSRSSLPRQQPYILPPVHVQCGEHYSETHTSQDSIFHGNEEALYCNSHNSLDLNYLNGTVTNGSVCSVHSVNSLNCSQSFIQASPVSSNLSIPGSDIMRADYIPSHRHSAIIVPSYRPTPDYETVMRQMKRGILHTDSQSQSLRNLNIINTHAYNQPEDLVYSQPEMRERHPYTVPYGPQGVYSNKLVSPSDQRNPKNNVVPSKPGASAISHTVSTPELANMQLQGSHNYSTAHMLKNYLFRPPPPYPRPRPATSTPDLASHRHKYVSGSSPDLVTRKVQLSVKTFQEDSSPVVHQSLQEVSEPLTATKHHGTVNKRHSLEVMNSMVRGMEAMTLKSLHLPMARRNTLREQGPPEEGSGSHEVPQLPQYHHKKTFSDATMLIHSSESEEEEEEAPESVPQIPMLREKMEYSAQLQAALARIPNKPPPEYPGPRKSVSNGALRQDQASLPPAMARARVLRHGPAKAISMSRTDPPAVNGASLGPSISEPDLTSVKERVKKEPVKERPVSEMFSLEDSIIEREMMIRNLEKQKMAGLEAQKRPLMLAALNGLSVARVSGREENRVDATRVPMDERFRTLKKKLEEGMVFTEYEQIPKKKANGIFSTAALPENAERSRIREVVPYEENRVELIPTKENNTGYINASHIKVVVGGAEWHYIATQGPLPHTCHDFWQMVWEQGVNVIAMVTAEEEGGRTKSHRYWPKLGSKHSSATYGKFKVTTKFRTDSVCYATTGLKVKHLLSGQERTVWHLQYTDWPDHGCPEDVQGFLSYLEEIQSVRRHTNSMLEGTKNRHPPIVVHCSAGVGRTGVLILSELMIYCLEHNEKVEVPMMLRLLREQRMFMIQTIAQYKFVYQVLIQFLQNSRLI

binding (FLAG-SMAD4): binds
B2: V5-PTPN14 wild type (protein, UniProt Q15678 1-1187)
chain: B1 chain
